A short description of the data set: Roller compaction feasibility (slugs, capsule fill). Conditions: for Average Net Weight: size 0 capsule, roller compacted API. How it is done: Roller compaction feasibility was performed by producing slugs using a single station hand press then carefully hand milling those slugs so that all granules were small enough to pass through a size US 18 mesh. These granules were then filled into size 0 capsules by both the free flow and tamp method. A total of N=5 capsules were filled for each lot for each method. The average net fill weight results are given below in […]. The same issue was not seen when compressing the succinate salt form of β-GPA. Slugs produced around 1500 PSI produced slugs hard enough to be tested for hardness. The resulting slug parameters can be seen in Table 33.

`N=C(N)NCCC(=O)O.N=C(N)NCCC(=O)O.O=C(O)CCC(=O)O` [β-GPA succinate (2:1)]: the “Average Net Weight” value is, setting by setting: (Free Flow fill) 335.4 mg; (Tamp fill) 574.6 mg.

Turning to `N=C(N)NCCC(=O)O` [β-GPA, β-Guanidinopropionic acid, reference compound], the “increase of maximum capsule fill weight after roller compaction” value (both free flow and tamp filled capsules) is “roughly 100 mg”. In addition, the “Average Net Weight” value worked out at 303.6 mg (Free Flow fill) and 568.2 mg (Tamp fill).

These data come from patent US9884813B1, “Pharmaceutically acceptable salts of B-guanidinopropionic acid with improved properties and uses thereof” (Rgenix, Inc., priority 2017, dated 2018).
